Measured values published in article PMC8998355, “Diversity-Oriented Synthesis Catalyzed by Diethylaminosulfur-Trifluoride—Preparation of New Antitumor Ecdysteroid Derivatives” (International Journal of Molecular Sciences, 2022).

System: L5178YMDR cells
Experiment: Combination assay with doxorubicin (checkerboard microplate method, MTT)
Assay type: cell-based, mouse
Description: Compounds 7, 10, 11, 13, and 14 had sufficient individual antiproliferative properties for their assessment of chemo-sensitizing activity. This was carried out as an antiproliferative assay on L5178YMDR cells in combination with doxorubicin, arranged according to the checkerboard microplate method.
The checkerboard microplate method was used to evaluate the compounds’ interaction with doxorubicin, as described before. Briefly, doxorubicin (2 mg/mL, Teva Pharmaceuticals, Budapest, Hungary) was serially diluted in the horizontal direction (100 µL per well), and the ecdysteroid was subsequently diluted in the vertical direction (50 µL per well). L5178YMDR cells were re-suspended in culture medium and added to each test well in 50 µL to contain 1 × 10^4 cells per well, and 50 µL of medium was added to the medium control wells. The plates were incubated for 72 h at 37 °C in a CO2 incubator and, at the end of the incubation period, the cell growth was determined by MTT assay as described above. Cell viability data were analyzed by the Calcusyn software using the Chou method, and drug interactions were expressed as combination index (CI) values, in which 0 < CI < 1, CI = 1, and CI > 1 refer to synergism, additivity, and antagonism, respectively.

[1] = drug ratio 46.4:1, with doxorubicin
[2] = drug ratio 23.2:1, with doxorubicin
[3] = drug ratio 92.8:1, with doxorubicin
[4] = drug ratio 185.6:1, with doxorubicin

Structure (SMILES)	m (slope of the median-effect plot) (drug ratio 11.6:1, with doxorubicin)	m (slope of the median-effect plot) (drug ratio 23.1:1, with doxorubicin)	m (slope of the median-effect plot) [1]	m (slope of the median-effect plot) [2]	m (slope of the median-effect plot) [3]	m (slope of the median-effect plot) [4]	m (slope of the median-effect plot) (drug ratio 371.2:1, with doxorubicin)
CC(=O)[C@H]1CC[C@@]2(F)C3=CC(=O)[C@@H]4C[C@H]5OC(C)(C)O[C@H]5C[C@]4(C)C3=CC[C@]12C [Compound 7]	2.18	1.32	2.64	–	–	–	–
CC(=O)[C@H]1CC=C2C3=CC(=O)[C@@H]4C[C@H]5OC(C)(C)O[C@H]5C[C@]4(C)[C@H]3CC[C@@]21C [Compound 10]	–	–	2.76	2.20	2.14	2.37	–
CC(=O)[C@H]1CC[C@@]2(F)C3=CC(=O)[C@@H]4C[C@H]5OC(C)(C)O[C@H]5C[C@]4(C)[C@H]3CC[C@]12C [Compound 11]	–	–	3.07	2.43	3.42	3.51	3.27
CC(=O)N[C@H]1CC=C2C3=CC(=O)[C@@H]4C[C@H]5OC(C)(C)O[C@H]5C[C@]4(C)[C@H]3CC[C@@]21C [Compound 13]	–	–	4.18	2.65	2.60	2.54	–
CC(=O)N[C@H]1CC[C@@]2(F)C3=CC(=O)[C@@H]4C[C@H]5OC(C)(C)O[C@H]5C[C@]4(C)[C@H]3CC[C@]12C [Compound 14]	–	–	1.99	1.78	1.99	1.65	–
